Data as given in PubChem BioAssay AID720505 (Drosophila RNAi Screening Center, 2013)
The deposit covers about 20,000 reagents; below is a random part of those that have a named target and a result. In the full data, about 2,100 (10%) are marked active. 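Raw plate signals without normalisation; calls rest on control-based scores that were not deposited; replicate 2 separates called from uncalled poorly.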 Names joined by + are all predicted targets of the reagent. Not stated in the record: the amount of reagent, the time to read-out.

Screen: 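Knock-downs that reduce calcium influx once internal stores are emptied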 (primary screen)
System: Drosophila S2R+ cells
Reagent: long dsRNA against Drosophila genes
Treatment: thapsigargin (2 µM) in calcium-free buffer to empty internal stores, then 2 mM calcium added back
Detection: 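Stores emptied by 2 µM thapsigargin without calcium, then 2 mM calcium re-added; fluo-4 fluorescence followed by FLIPR in 384-well plates, per-well averaged endpoint, raw; two screen passes, some wells retested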
Reading the numbers: calcium signal: higher = more calcium entry after store depletion
Rule for the call: 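Knock-downs counted as hits when calcium entry dropped relative to STIM1 positive and Rho1 negative controls present on each plate; roughly 1500 genes called, with reductions of differing size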
Meaning of the calls: active = called as lowering calcium entry; inactive = not called

gene	DRSC id	calcium signal, replicate 1	calcium signal, replicate 2	outcome
CG13563	DRSC22153	98.2	218	inactive
E2f2	DRSC03320	109	94.5	inactive
CG1105	DRSC12528	112	134	inactive
CR40354	DRSC20923	71	11784	inactive
CG10338	DRSC02039	92.9	103	inactive
CG31933	DRSC00457	226	170	inactive
Ace	DRSC12959			inactive
Ace	DRSC14100	91.7	164	inactive
CG33284	DRSC22905	136	208	inactive
l(2)k01209	DRSC06889	181	160	inactive
Grx1t	DRSC04530	68.6	115	inactive
CG42816	DRSC11230	170	234	inactive
asRNA:CR31144 + RpL3	DRSC16834	64.6	71.8	active
twe	DRSC03628	95.5	90.3	inactive
CG14302	DRSC14781	147	136	inactive
CG7840	DRSC03075	127	252	inactive
CG10462	DRSC02058	103	98.3	inactive
CG7058	DRSC20021	81.4	87.7	inactive
CG8468	DRSC07190	102	184	inactive
Acsx2	DRSC14308	161	152	inactive
TwdlZ	DRSC19154	86.6	107	inactive
CG9344	DRSC04541	188	105	inactive
CG14840	DRSC14964	63.4	94.4	inactive
CarT	DRSC03196	103	87.7	inactive
FucTD	DRSC08634	98.3	139	inactive
CG15199	DRSC19646	66.9	92.3	inactive
CG11095	DRSC19375	87.6	80.4	inactive
mirr	DRSC11369	83.3	81.3	inactive
rdgC	DRSC10069	73	124	inactive
rdgC	DRSC11387	57.9	110	active
Asap	DRSC06493	131	119	inactive
Asap	DRSC06830	216	161	inactive
CG13438	DRSC06398	71.5	125	inactive

Continued, starting with the last 4 of the part before.
gene	DRSC id	calcium signal, replicate 1	calcium signal, replicate 2	outcome
rdgC	DRSC11387	57.9	110	active
Asap	DRSC06493	131	119	inactive
Asap	DRSC06830	216	161	inactive
CG13438	DRSC06398	71.5	125	inactive
Syt12	DRSC19359	119	100	inactive
Acph-1	DRSC14103	157	150	inactive
Gr2a	DRSC18603	81.3	120	inactive
CG33468	DRSC22940	104	183	inactive
CG8180	DRSC07092	173	139	inactive
CG8180	DRSC07093	149	158	inactive
CSN7	DRSC06807	165	89.8	inactive
CSN7	DRSC06808	82.6	130	inactive
Pdss2	DRSC11625	132	90.3	inactive
CG6652	DRSC10686	93.5	102	inactive
Mettl14	DRSC03073	119	139	inactive
CG42700	DRSC06292	96.6	142	inactive
CG42700	DRSC06293	111	157	inactive
CG42700	DRSC23109	149	178	inactive
CG9757	DRSC16557	121	244	inactive
CG9757	DRSC21707	151	104	inactive
psh	DRSC19990	117	140	inactive
Mal-B2	DRSC02417	138	163	inactive
ORY	DRSC22883	117	110	inactive
DNAlig3	DRSC15201	182	117	inactive
Cth	DRSC07422	80	105	active
Serinc	DRSC11296	127	72.4	inactive
CG9240	DRSC20177	107	164	inactive
